Reference: paper PMC5919438
No constants are given. Whether binding was seen depends on the method and setting. Binding seen in cells or lysates may run through a third protein. Some results given as binding are weak or reduced against the parent protein; the word gives no strength.

Amino acid sequences for entries named in this document (tags omitted).
UniProt Q98146: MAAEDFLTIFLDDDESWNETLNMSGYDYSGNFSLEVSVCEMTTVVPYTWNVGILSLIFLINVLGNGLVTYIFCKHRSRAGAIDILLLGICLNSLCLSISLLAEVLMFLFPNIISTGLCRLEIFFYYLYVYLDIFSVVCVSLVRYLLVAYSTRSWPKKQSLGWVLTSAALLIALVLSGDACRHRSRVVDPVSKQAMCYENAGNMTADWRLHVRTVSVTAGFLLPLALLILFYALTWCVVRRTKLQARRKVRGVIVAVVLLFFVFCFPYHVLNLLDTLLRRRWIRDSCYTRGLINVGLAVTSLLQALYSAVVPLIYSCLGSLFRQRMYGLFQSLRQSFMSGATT

T1: Cell adhesion molecule 1 (CADM1), endogenous (human (endogenous in HeLa and PEL cell lines)) (UniProt Q9BY67)
T1 sequence: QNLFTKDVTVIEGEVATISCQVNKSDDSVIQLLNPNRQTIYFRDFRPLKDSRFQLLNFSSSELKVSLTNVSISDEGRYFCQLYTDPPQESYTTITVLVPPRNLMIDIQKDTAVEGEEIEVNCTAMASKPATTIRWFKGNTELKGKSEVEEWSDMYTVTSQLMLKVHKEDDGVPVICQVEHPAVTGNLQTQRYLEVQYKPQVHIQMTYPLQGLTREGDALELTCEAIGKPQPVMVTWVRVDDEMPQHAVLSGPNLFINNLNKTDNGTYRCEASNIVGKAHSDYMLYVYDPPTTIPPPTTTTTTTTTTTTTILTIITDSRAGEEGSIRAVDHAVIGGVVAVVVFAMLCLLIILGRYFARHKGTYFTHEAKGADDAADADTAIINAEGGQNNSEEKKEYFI


Legend:
[1] = target: T1, Cell adhesion molecule 1 (CADM1), endogenous (human (endogenous in HeLa and PEL cell lines)); assay: co-IP; endogenous proteins, lysates of PEL cell lines (BC-1, BC-3, BCBL-1); immunoprecipitated with anti-CADM1 or control IgG; blotted with anti-vFLIP or anti-vGPCR
[2] = target: Flag-vGPCR (KSHV viral G-protein-coupled receptor, open reading frame 74) (KSHV/HHV8 (cDNA of BC-3 cells)) (UniProt Q98146); assay: co-IP; HeLa cells transfected with Flag-vFLIP or Flag-vGPCR, 48 h; lysed in RIPA buffer; immunoprecipitated with anti-Flag or control IgG; blotted with anti-CADM1 (endogenous) and anti-Flag

Row | Molecule | binding [1] | binding [2]
1 | vGPCR (KSHV open reading frame 74), endogenous in PEL cells (from UniProt Q98146 1-342) (receptor) | binds | 
2 | Cell adhesion molecule 1 (CADM1), endogenous (protein, UniProt Q9BY67 45-442) QNLFTKDVTVIEGEVATISCQVNKSDDSVIQLLNPNRQTIYFRDFRPLKDSRFQLLNFSSSELKVSLTNVSISDEGRYFCQLYTDPPQESYTTITVLVPPRNLMIDIQKDTAVEGEEIEVNCTAMASKPATTIRWFKGNTELKGKSEVEEWSDMYTVTSQLMLKVHKEDDGVPVICQVEHPAVTGNLQTQRYLEVQYKPQVHIQMTYPLQGLTREGDALELTCEAIGKPQPVMVTWVRVDDEMPQHAVLSGPNLFINNLNKTDNGTYRCEASNIVGKAHSDYMLYVYDPPTTIPPPTTTTTTTTTTTTTILTIITDSRAGEEGSIRAVDHAVIGGVVAVVVFAMLCLLIILGRYFARHKGTYFTHEAKGADDAADADTAIINAEGGQNNSEEKKEYFI |  | binds
